# Source: paper doi:10.1101/2024.09.19.613951
# The chains behind the UniProt entries cited, without tags or fusion partners. Where a name states a change or a piece, a line headed by the entry shows the natural chain unless it says otherwise.
# UniProt Q923T9: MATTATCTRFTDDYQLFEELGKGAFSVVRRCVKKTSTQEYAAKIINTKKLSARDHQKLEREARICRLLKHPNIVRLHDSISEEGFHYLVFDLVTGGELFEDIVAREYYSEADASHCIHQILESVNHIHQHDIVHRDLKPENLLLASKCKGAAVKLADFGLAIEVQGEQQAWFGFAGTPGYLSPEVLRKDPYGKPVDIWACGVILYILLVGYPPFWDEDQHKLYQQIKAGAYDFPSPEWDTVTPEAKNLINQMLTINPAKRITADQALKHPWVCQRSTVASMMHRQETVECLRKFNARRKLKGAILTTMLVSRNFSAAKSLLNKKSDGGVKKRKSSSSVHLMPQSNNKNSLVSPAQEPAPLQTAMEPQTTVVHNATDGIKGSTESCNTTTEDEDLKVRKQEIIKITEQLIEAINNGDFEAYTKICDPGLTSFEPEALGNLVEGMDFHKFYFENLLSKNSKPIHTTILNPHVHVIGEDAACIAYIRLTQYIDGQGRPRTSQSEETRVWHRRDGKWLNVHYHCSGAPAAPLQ
# UniProt P28652: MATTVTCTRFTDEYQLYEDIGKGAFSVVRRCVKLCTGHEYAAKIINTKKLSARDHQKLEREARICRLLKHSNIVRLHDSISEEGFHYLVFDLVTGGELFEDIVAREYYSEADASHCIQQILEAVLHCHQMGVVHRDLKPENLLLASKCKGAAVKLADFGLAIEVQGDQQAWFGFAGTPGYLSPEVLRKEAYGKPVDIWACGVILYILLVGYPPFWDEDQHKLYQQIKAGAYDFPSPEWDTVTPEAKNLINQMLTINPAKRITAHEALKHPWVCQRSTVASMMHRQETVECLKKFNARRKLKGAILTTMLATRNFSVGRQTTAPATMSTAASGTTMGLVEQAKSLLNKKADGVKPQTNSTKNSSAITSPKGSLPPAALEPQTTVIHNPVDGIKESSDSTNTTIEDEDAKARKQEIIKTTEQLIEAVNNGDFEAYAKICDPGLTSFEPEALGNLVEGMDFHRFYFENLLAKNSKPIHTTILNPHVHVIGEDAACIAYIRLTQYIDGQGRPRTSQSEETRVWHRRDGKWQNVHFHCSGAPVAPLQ
# No constants are given. Whether binding was seen depends on the method and setting. In cells and extracts the contact can be indirect. Some binding calls cover weakened binding; strength is not graded here.
# Tests used:
# [1] = biological target: γCaMKII (Camk2g), wildtype (mouse (endogenous in dHPC)) (UniProt Q923T9); experiment: co-IP; dHPC tissue of wildtype vs. γCaMKIIQ285A mutant mice; western blotting of co-IPs for βCaMKII bound to γCaMKII; levels normalized to inputs (1%); n = 5/genotype
# [2] = biological target: γCaMKIIQ285A (mouse (endogenous in dHPC)) (UniProt Q923T9); experiment: as above
substance,measurement,setting,value
βCaMKII (Camk2b) (from UniProt P28652 1-542),binding,[1],binds
same,binding,[2],binds
